Results: US10946033B2, “2′-substituted-N6-substituted purine nucleotides for RNA virus treatment” (priority 2016, dated 2021)
At least one compound was matched to its structure with a doubt left.

System: Yellow Fever (YFV)
Type: cell-based, Yellow Fever virus

C#C[C@@]1(F)[C@H](O)[C@@H](COP(=O)(N[C@@H](C)C(=O)OC(C)C)Oc2ccccc2)O[C@H]1n1cnc2c(NC3CC3)nc(N)nc21 (stereo partly drawn) [Compound 6, (2S)-Isopropyl 2-(((((2R,3R,4R,5R)-5-(2-amino-6-(cyclopropylamino)-9H-purin-9-yl)-4-ethynyl-4-fluoro-3-hydroxytetrahydrofuran-2-yl)methoxy)phenoxy)phosphoryl)amino) propanoate]
YFV EC50: 4.4/6 μM
